Experimental data reported in patent US20220339180A1, “Methods And Compositions For Treating Viral Diseases Using Combination Of Drugs” (priority 2021, published 2022).
For at least one compound, name, drawing or mass did not settle the structure.

Tested on: SARS-CoV-2
Format: cell-based
Details: Sorafenib 4 μM or remdesivir 1 μM alone

## CCC(CC)COC(=O)[C@H](C)N[P@](=O)(OC[C@H]1O[C@@](C#N)(c2ccc3c(N)ncnn23)[C@H](O)[C@@H]1O)Oc1ccccc1 [Remdesivir]
  clearing of virus from infected cells, single agent: have effect to clear the virus
